Laboratory results taken from PubChem BioAssay AID588590 (National Center for Advancing Translational Sciences (NCATS), 2011).
In all, about 390,000 compounds went through this assay and about 4,000 (1%) were called active. Inconclusive results, whose numbers are uncertain, are shown with a selection of clear calls. The call rests on the fitted dose curve; in most records, active means well fitted inhibition curve with a large enough effect; inconclusive means small, poorly fitted or top-dose-only effect, or another doubt; inactive means no such curve, though single readings can be large or run the other way. Potencies of inconclusive entries are doubtful fits and often do not repeat.

Protein sequences, listed by entry. Tags and fused reporters are not part of them. Lines headed by an entry give the natural chain unless they say otherwise; changes in a name come on top.
UniProt Q9UNA4: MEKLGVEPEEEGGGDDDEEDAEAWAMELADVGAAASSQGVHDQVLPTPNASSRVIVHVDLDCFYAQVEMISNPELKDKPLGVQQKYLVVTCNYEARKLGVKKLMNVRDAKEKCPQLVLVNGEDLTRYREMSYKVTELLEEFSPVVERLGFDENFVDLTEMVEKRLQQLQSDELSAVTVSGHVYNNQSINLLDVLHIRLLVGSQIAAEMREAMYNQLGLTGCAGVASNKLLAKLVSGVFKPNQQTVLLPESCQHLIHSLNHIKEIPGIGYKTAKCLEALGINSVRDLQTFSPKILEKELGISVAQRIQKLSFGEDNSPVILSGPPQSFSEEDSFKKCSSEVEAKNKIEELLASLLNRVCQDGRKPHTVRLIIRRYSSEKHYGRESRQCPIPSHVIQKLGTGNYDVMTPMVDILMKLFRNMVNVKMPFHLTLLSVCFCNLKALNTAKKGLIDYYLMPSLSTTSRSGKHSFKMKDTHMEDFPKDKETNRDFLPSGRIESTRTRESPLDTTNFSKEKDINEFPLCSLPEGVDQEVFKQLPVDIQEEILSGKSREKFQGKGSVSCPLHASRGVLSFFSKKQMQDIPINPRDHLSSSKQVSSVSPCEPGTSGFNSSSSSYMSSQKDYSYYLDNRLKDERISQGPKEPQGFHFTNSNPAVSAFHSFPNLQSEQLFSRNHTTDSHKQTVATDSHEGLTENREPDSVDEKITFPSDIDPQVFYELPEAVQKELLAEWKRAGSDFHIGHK

What follows are molecules tested against DNA polymerase iota (Homo sapiens) (UniProt Q9UNA4) (assay: qHTS for Inhibitors of Polymerase Iota). Settings: Pol iota fluorescent replication assay, 10 min; series mostly up to 115 µM; activity, negative = inhibition: at the top concentration.
In short: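 Fluorescent replication assay read twice, at 0 min and 10 min after adding 50 nM (final) substrate. Enzyme (10 nM) and compounds were first incubated 15 min at room temperature; enzyme-free buffer wells were negative controls.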
Potency means the concentration at half of the fitted maximal effect.

activity, negative = inhibition, inactive:
CCc1ccc(Nc2ccc3nonc3c2[N+](=O)[O-])cc1 -23.8%
CCOc1ccc(NS(=O)(=O)N(C)C)cc1 20.5%
Cc1ccc(N2CC(C(=O)Nc3ccc(S(=O)(=O)Nc4nccs4)cc3)CC2=O)cc1C (centres undefined) 22.4%
COc1cc(C2C(=O)N(C3CCCCCC3)CC(=O)N2CCc2ccccc2)ccc1OC(C)C (centres undefined) 23.9%
O=c1oc2ccc3ccccc3c2cc1-c1nnc(Nc2ccc(F)cc2)s1 5.61%
CC(=O)OCC(NC(=O)C(Cc1ccccc1)NC(=O)OC(C)(C)C)C1OC(n2cc(F)c(=O)[nH]c2=O)C(OC(C)=O)C1OC(C)=O (centres undefined) -13.6%
COc1ccccc1/C=C1/SC(=S)N(CCC(=O)Nc2cccnc2)C1=O 17.9%
COc1ccc(NC(=O)CSc2nnc(C)n2Cc2ccccc2)cc1 5.8%
O=c1oc2ccccc2cc1-c1csc(NN=C2CCCC2)n1 28.9%
Cc1cccc(NC(=O)C2CCCN(S(=O)(=O)c3cnc[nH]3)C2)c1C (centres undefined) 14.1%
O=C(NCCc1ccc(Cl)cc1)c1ccc(CS(=O)Cc2cccc(Cl)c2)o1 (centres undefined) -11.7%
CCC(C)NC(=O)c1cnn(-c2ccc(Cl)cc2)c1C1CCN(C(=O)OC(C)(C)C)CC1 (centres undefined) 32.4%
COc1cccc(NC(=O)CN2C(=O)NC(C)(c3ccc(C)cc3)C2=O)c1 (centres undefined) 42.3%
CCCCNC(=S)N/N=C/C1=CCC2CC1C2(C)C (centres undefined) 10.5%
O=C(CNC(=O)c1ccc(Cl)cc1Cl)OCc1cn2cc(Br)ccc2n1 5.39%
O=C(CC1c2ccccc2Oc2ccccc21)Nc1ccccc1C(F)(F)F -7.99%
Cn1ccc2cc(S(=O)(=O)N3CCCN(C(=O)Nc4ccccc4Br)CC3)ccc21 7.61%
COc1ccc(N2CCN(C(CNC(=O)C(=O)NCc3cccs3)c3ccco3)CC2)cc1 (centres undefined) 18.1%

Potency, inconclusive:
C/C(Sc1nnc(Cc2ccccc2)o1)=C(\O)c1ccccc1 2.82 µM [inhibitor, partial curve, poor fit]
CCn1c2ccccc2c2cc(NC(=O)c3ccc(Br)o3)ccc21 35.5 µM [inhibitor, partial curve, poor fit]
Cc1cc(-c2ccc(C(C)C)c(S(=O)(=O)N3CC(=O)Nc4ccccc43)c2)on1 20 µM [inhibitor, partial curve, poor fit]
Oc1ccc(-c2csc(Nc3ccccn3)n2)cc1O 70.8 µM [inhibitor, single point]
COc1ccc(C(=O)Nc2ccc3nc(N4CCOCC4)sc3c2)cc1OC 44.7 µM [inhibitor, partial curve]
CC(=O)Nc1ccc2c(COC(=O)CC3Sc4ccccc4NC3=O)cc(=O)oc2c1 (centres undefined) 12.6 µM [inhibitor, full curve, poor fit]
O=C(CSc1nnc(CNc2ccccc2)o1)c1ccc2c(c1)OCCO2 11.2 µM [inhibitor, full curve, poor fit]
O=C(NC1(C(F)(F)F)NC(=O)N(CCc2ccccc2)C1=O)c1ccc(Cl)cc1 (centres undefined) 50.1 µM [inhibitor, partial curve]
CC1C(=O)N2CCCc3cc(S(=O)(=O)NCc4ccc(F)cc4)cc1c32 (centres undefined) 79.4 µM [inhibitor, partial curve, poor fit]
COc1cccc(OC)c1NC(=O)CN1CCN(C)CC1 39.8 µM [inhibitor, partial curve, poor fit]
O=C(NCCOc1ccccc1)c1ccc2c(c1)S(=O)(=O)c1cc(Cl)ccc1C2=O 35.5 µM [inhibitor, single point]
C/C(CCN1CCc2nc(-c3ccccc3)c(-c3ccccc3)cc2C1)=N\OC[C@@H](C)[C@H](OCc1ccccc1)C(C)C 79.4 µM [inhibitor, partial curve]
COc1cccc(CNc2cc(C)nc3nc(-c4ccc(C)cc4)nn23)c1 89.1 µM [inhibitor, partial curve]
CC(C)(C)c1ccc(OCCC(=O)NCCc2ccc(S(N)(=O)=O)cc2)cc1 70.8 µM [inhibitor, partial curve, poor fit]
Cc1cccc(C(=O)Nc2cccc(C(=O)NC3CCCC3)c2)c1 28.2 µM [inhibitor, single point]
CC(C)[C@H](NC(=O)c1ccccc1Cl)C(=O)OCc1cc([N+](=O)[O-])cc2c1OCOC2 100 µM [inhibitor, partial curve, poor fit]
O=C(Nc1cccnc1)c1cc(-c2ccccc2O)on1 0.708 µM [inhibitor, full curve, poor fit]
O=C(NS(=O)(=O)c1ccccc1[N+](=O)[O-])c1ccccc1 39.8 µM [inhibitor, partial curve, poor fit]
COc1cccc(/C=N/Nc2ccc(S(=O)(=O)Nc3ccccc3C(=O)O)cc2[N+](=O)[O-])c1O 15.8 µM [inhibitor, partial curve, poor fit]
Cc1c(Cl)cccc1NS(=O)(=O)c1ccc2c(c1)C1C=CCC1C(c1ccc(C(=O)O)cc1)N2 (centres undefined) 3.98 µM [inhibitor, full curve, poor fit]
CC(NC(=O)CSc1ncccn1)c1ccc2c(c1)OCO2 (centres undefined) 89.1 µM [inhibitor, single point]
COc1ccc(CNC(=O)CN2C(=O)C(c3ccccc3)Oc3cccnc32)cc1 (centres undefined) 10 µM [inhibitor, full curve, poor fit]
C=CCCC(=O)Nc1nc(C)c(-c2csc(Nc3ccc(Cl)cc3Cl)n2)s1 8.91 µM [inhibitor, partial curve]
Cc1cccc(OCc2nc3ccccc3c(=O)n2N)c1 12.6 µM [inhibitor, partial curve, poor fit]
O=C(Cc1cc(=O)[nH][nH]1)N/N=C/c1c(F)cccc1Cl 3.98 µM [inhibitor, full curve, poor fit]
CCCCCC(=O)N(O)C1CC(=O)N(c2ccccc2)C1=O (centres undefined) 39.8 µM [inhibitor, partial curve, poor fit]
CC1CCN(Cc2c(O)ccc3c2O/C(=C\c2ccco2)C3=O)CC1 1.78 µM [inhibitor, full curve, poor fit]
CCOC(=O)C(NC(=O)c1ccccc1)=C1CCCCC1 112 µM [inhibitor, partial curve, poor fit]
COc1ccc(C2C3C=CCC(c4ccccc4)C3C(=O)N2Cc2ccccc2)cc1Cl (centres undefined) 10 µM [inhibitor, partial curve, poor fit]
O=C(O)c1cc(Cl)c2c(c1)OCO2 50.1 µM [inhibitor, partial curve, poor fit]
Cc1nn(C)c(C)c1S(=O)(=O)N1CCCC(C(=O)N2CCN(c3ccc(Cl)cc3)CC2)C1 (centres undefined) 31.6 µM [inhibitor, single point]
COc1ccc(NC(=O)/C(C#N)=C/C=C/c2ccco2)cc1 20 µM [inhibitor, partial curve, poor fit]
O=C(Nc1cccc(-c2cc3ccccc3oc2=O)c1)c1ccc(Br)o1 31.6 µM [inhibitor, partial curve, poor fit]
COc1cc(C(=O)Oc2c(Sc3ccc(C)cc3)c(C)nn2-c2ccccc2)cc(OC)c1OC 22.4 µM [inhibitor, partial curve, poor fit]
COc1ccccc1Nc1nn2c(=O)c3ccc(C(=O)NCCCOC(C)C)cc3nc2s1 100 µM [inhibitor, single point]
CCOc1ccc(CCNC(=O)CCCn2nc(C)c3sc4ccccc4c3c2=O)cc1OCC 10 µM [inhibitor, partial curve]
Cc1csc(NC(=O)CSc2nccn2C)n1 100 µM [inhibitor, single point]
O=C(CCl)Nc1nc(-c2ccco2)c(-c2ccco2)s1 112 µM [inhibitor, partial curve, poor fit]
O=Cc1ccc(-c2ccc(C(=O)O)cc2)o1 50.1 µM [inhibitor, partial curve]
Nc1nc(=S)c2[nH]c(=S)[nH]c2[nH]1 25.1 µM [inhibitor, partial curve, poor fit]
COC(=O)[C@@]1(Cc2ccccc2)[C@H]2C(=O)N(Cc3ccccc3)C(=O)[C@H]2[C@H]2CN=C(SCC3CC3)N21 39.8 µM [inhibitor, single point]
COc1ccccc1CNC(=O)N1CCN(c2ccccc2Cl)CC1 100 µM [inhibitor, partial curve, poor fit]
CCC(=O)N1CCc2cc(Br)cc(S(=O)(=O)N3CCCC(C(=O)Nc4ccc(OC)c(Cl)c4)C3)c21 (centres undefined) 89.1 µM [inhibitor, single point]
CCOC(=O)c1cccc(NC(=O)C(CC(C)C)N2Cc3ccccc3C2=O)c1 (centres undefined) 100 µM [inhibitor, single point]

Four entries from above, arranged by molecular weight, rising.
Potency, inconclusive:
O=C(O)c1cc(Cl)c2c(c1)OCO2 50.1 µM [inhibitor, partial curve, poor fit]
O=C(CCl)Nc1nc(-c2ccco2)c(-c2ccco2)s1 112 µM [inhibitor, partial curve, poor fit]
CC(C)(C)c1ccc(OCCC(=O)NCCc2ccc(S(N)(=O)=O)cc2)cc1 70.8 µM [inhibitor, partial curve, poor fit]
CC(=O)Nc1ccc2c(COC(=O)CC3Sc4ccccc4NC3=O)cc(=O)oc2c1 (centres undefined) 12.6 µM [inhibitor, full curve, poor fit]

Following part.

Potency, active:
Cc1ccc(C)c(-n2c(N)c(C#N)c3nc4ccccc4nc32)c1 25.1 µM
O=C1/C(=C\c2ccco2)CCC/C1=C\c1ccco1 2.82 µM
